At least one peptide structure holds a part that was inferred or is arguable (an end, a ring closure or a residue). Where no end group is shown, it is not given here.
Tests used:
D10.G4.1 cells = assay: T cell proliferation assay (D10.G4.1, conalbumin); assay type: cell-based, mouse; details: 0.01-100 μM peptide, 72 hours
[1] = test system: IL-2 production by T cell hybridoma 22D11 cells; assay: Inhibition of IL-2 production; assay type: cell-based, mouse; details: 0.01-100 μM peptide
[2] = test system: human T cells stimulated with PHA; assay: Phytohemagglutinin T cell proliferation assay; assay type: cell-based; details: 0.25 μM peptide; 5 μg/ml PHA
Experimental: The mitogen phytohemagglutinin (PHA) activates T cells by cross-linking CD3/TCR complexes. Human blood is collected from volunteer donors. Lymphocytes are purified by separation over a Ficoll gradient. T cells are separated by rosetting to sheep red blood cells. The enriched T cell population is stimulated with 5 μg/ml phytohemagglutinin (PHA). FIG. 7 illustrates the ability of the D2 peptide analogs to inhibit T cell proliferation in response to PHA stimulation. […] Results are illustrated in FIG. 7.

HYKLSQRGYEWDAGDGC [SEQ ID NO:11, HYKLSQRGYEWDAGDGC, reference compound]
inhibition of T cell proliferation (D10.G4.1 cells): inactive | inhibition of IL-2 production [1]: inactive | CPM after PHA stimulation [2]: 50000 CPM
